# Measured values taken from paper PMC9891873.
# These are yes or no findings as the source states them, for the method shown. In cells and extracts the contact can be indirect. Some results given as binding are weak or reduced against the parent protein; the word gives no strength. For some assays here: Where a sequence is shown, tags or fusion partners need not be part of it.
# T1: endogenous TRIM69 (human (endogenous in SW-1990)) (UniProt Q86WT6)
# T1 sequence: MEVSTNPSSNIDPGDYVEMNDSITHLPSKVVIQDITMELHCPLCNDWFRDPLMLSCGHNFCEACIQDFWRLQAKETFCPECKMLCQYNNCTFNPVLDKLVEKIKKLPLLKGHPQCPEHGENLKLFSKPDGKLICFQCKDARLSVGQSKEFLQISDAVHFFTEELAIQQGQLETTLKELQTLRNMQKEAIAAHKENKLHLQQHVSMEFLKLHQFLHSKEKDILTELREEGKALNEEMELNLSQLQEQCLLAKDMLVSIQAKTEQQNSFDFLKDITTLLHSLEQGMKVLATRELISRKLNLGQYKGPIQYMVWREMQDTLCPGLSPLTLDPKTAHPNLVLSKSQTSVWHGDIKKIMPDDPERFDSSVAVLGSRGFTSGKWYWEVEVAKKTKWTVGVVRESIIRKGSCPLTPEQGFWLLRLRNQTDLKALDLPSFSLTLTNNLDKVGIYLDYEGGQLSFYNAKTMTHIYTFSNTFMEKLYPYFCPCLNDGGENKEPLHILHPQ
# T2: GFP-tagged wild-type EYA4 (Eyes absent homologue 4) (human) (UniProt O95677)
# T2 sequence: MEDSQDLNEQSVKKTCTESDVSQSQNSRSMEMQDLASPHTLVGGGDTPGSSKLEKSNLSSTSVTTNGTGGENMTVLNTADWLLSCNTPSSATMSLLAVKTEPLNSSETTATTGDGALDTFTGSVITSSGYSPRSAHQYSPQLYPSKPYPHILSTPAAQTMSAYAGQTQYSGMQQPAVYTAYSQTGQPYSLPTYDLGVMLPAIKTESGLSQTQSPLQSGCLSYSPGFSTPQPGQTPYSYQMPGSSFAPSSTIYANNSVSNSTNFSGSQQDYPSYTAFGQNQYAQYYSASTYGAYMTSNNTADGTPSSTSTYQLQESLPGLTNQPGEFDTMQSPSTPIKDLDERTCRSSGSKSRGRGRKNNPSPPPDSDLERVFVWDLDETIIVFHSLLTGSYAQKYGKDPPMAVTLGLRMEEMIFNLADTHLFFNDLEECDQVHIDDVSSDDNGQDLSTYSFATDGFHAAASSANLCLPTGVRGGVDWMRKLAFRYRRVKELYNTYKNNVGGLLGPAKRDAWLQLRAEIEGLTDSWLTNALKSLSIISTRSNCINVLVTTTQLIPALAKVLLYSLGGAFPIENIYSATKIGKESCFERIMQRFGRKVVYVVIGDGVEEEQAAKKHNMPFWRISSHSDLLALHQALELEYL
# Assays:
# [1] = target: T1, endogenous TRIM69 (human (endogenous in SW-1990)); test: co-IP; endogenous proteins, cytoplasmic extractions of SW-1990 cells; TRIM69 precipitated, blotted with antibodies against EYA4 and P53
# [2] = target: T2, GFP-tagged wild-type EYA4 (Eyes absent homologue 4) (human); test: co-IP; SW-1990 transfectants coexpressing GFP-EYA4 plus Flag-TRIM69; lysed in RIPA buffer, protein A/G-agarose beads and primary antibody at 4 °C overnight, washed with 50 mmol/L Tris-HCl pH 7.6, 300 mmol/L NaCl, 1 mmol/L EDTA, 0.5% NP-40, 10% glycerol; both orientations (GFP and Flag)
Molecule,binding [1],binding [2]
endogenous P53 (from UniProt P04637 1-393),binds,
"Flag-tagged wild-type full-length TRIM69 (tripartite motif containing 69) (protein, UniProt Q86WT6 1-500) MEVSTNPSSNIDPGDYVEMNDSITHLPSKVVIQDITMELHCPLCNDWFRDPLMLSCGHNFCEACIQDFWRLQAKETFCPECKMLCQYNNCTFNPVLDKLVEKIKKLPLLKGHPQCPEHGENLKLFSKPDGKLICFQCKDARLSVGQSKEFLQISDAVHFFTEELAIQQGQLETTLKELQTLRNMQKEAIAAHKENKLHLQQHVSMEFLKLHQFLHSKEKDILTELREEGKALNEEMELNLSQLQEQCLLAKDMLVSIQAKTEQQNSFDFLKDITTLLHSLEQGMKVLATRELISRKLNLGQYKGPIQYMVWREMQDTLCPGLSPLTLDPKTAHPNLVLSKSQTSVWHGDIKKIMPDDPERFDSSVAVLGSRGFTSGKWYWEVEVAKKTKWTVGVVRESIIRKGSCPLTPEQGFWLLRLRNQTDLKALDLPSFSLTLTNNLDKVGIYLDYEGGQLSFYNAKTMTHIYTFSNTFMEKLYPYFCPCLNDGGENKEPLHILHPQ",,binds
